The RNAGym collection of RNA variant scans (doi:10.1126/science.aae0568)
This sample is rich in variants without activity.

B1: tRNA (parent)
chain: GUUCCGUUGGCGUAAUGGUAACGCGUCUCCCUCCUAAGGAGAAGACUGCGGGUUCGAGUCCCGUACGGAACG

Variants of: B1
Assay: yeast fitness relative to wild type (ratio to wild type); higher = fitter; tRNA-Arg(CCU), competitive growth, 37 C, YPD
How it was run: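 Start and end populations of a pooled competition were compared by 100-nucleotide paired-end sequencing of gene amplicons. The Saccharomyces cerevisiae strains carried tRNA-Arg(CCU) gene variants at the native genomic locus, synthesised with a 3% per-site mutation rate at 69 sites, and competed in YPD at 37°C for 24 hours in six parallel replicates. Darwinian fitness relative to wild type was based on the change in genotype frequencies. Genotypes required ≥ 100 starting reads, and estimates < 0.5 were set to 0.5.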
For GUUCAGUUGGGGUAAUGGUAUCGCGUCUCCCUCCUAAGGAGAAGACUGCGGGUUCGCGUCCCGUACGGAACG [C5A C11G A21U A57C], the yeast fitness was ≤ 0.5. For GUUCCGUUGGCGUAAUGGUAAGGCGUCUACCUCCUGAGGAGAAGACUGCGGGUUCGAGUCCCGUACGGAACG [C22G C29A A36G], the yeast fitness was ≤ 0.5. For GUUGCGUUGGCGUAACGGUAACGCGUCUCCCUCCUUAGGAGAAGACUGCGGGUGCGAGUCCCGUACGGAACG [C4G U16C A36U U54G], the yeast fitness was ≤ 0.5. With GUUCCGUUGCCGUAAUGGUAACGCGUCUCUCUCCUAAGGAGACGACUGCGGGUUCGAGUCCCGUACGGAACG [G10C C30U A43C] the yeast fitness was ≤ 0.5. In the case of GUUCCGUUGGCGUAAUGGUAACGCGUCUCGCUCCUAAGGAGAAGAGUGCGGGCUCGGGUCCCGUACGGAACG [C30G C46G U53C A57G], the yeast fitness is reported as ≤ 0.5. In the case of GUUCCGAUGGCGUAAUGGUAACGUGUCGCCCUGUUGAGGGGAAGACUGCGGGUUCGAGUCCCGUACGGAACG [U7A C24U U28G C33G C34U A36G A40G], the yeast fitness is reported as ≤ 0.5. With GUUCCGUUGGCGUAAUGGUAAUGCGUCUCCCUCCUAAGGAGAAGACUGCGCGUUCGAAUCCCGUACGGAACG [C22U G51C G58A] the yeast fitness was ≤ 0.5. In the case of GUUCCGUUGGCGUAAUCGUAGCGCGUCUCCCUCCUAAGGAGAAGACUGCGGGUUCGAGUCUUGUACGGAACG [G17C A21G C61U C62U], the yeast fitness is reported as ≤ 0.5. GUUCUGUUGGCGUAAUGGAAACGCGUCUCCCUCCUAACGAGAAGACUGCGGGUUCGAGUCCGGUACGCAACG [C5U U19A G38C C62G G68C] showed a yeast fitness of 0.62. In the case of GUUCCGUUGGUGUAAUGGUAACGCGUCUCUCUCCUAAGGAGAAGACUGCGGGUUCGUGUCCCGUACGGAACG [C11U C30U A57U], the yeast fitness is reported as ≤ 0.5. GUUCCGUUGGCGUAAUGGUAACGCAUCUCCCUCCUAAGGAGAAGACUGUGGGUUUGAGUCCCGUACGGAACG [G25A C49U C55U] gave a yeast fitness of 0.683. With GUUCCGUUGGCGUAAUGGUAACGCGUCUGUCUCCUAAGGAGAAGACUGCCGGUUCGAGUCCCGUAAGGAACG [C29G C30U G50C C66A] the yeast fitness was ≤ 0.5. With GUUGCGUUGGCGUAAUGGUAACGCGUCUCCCUCCUAAGCAGAAGGCUGCGGGUUCGCGUCCCGUUUGGAACG [C4G G39C A45G A57C A65U C66U] the yeast fitness was 0.796. With GUUCCGUUGCCGUAAUGGUAACGCGUCUCCCUCCUAAGGAGAAGACUGCGGGUUCGGGUCCCGUGCGGAGCG [G10C A57G A65G A70G] the yeast fitness was ≤ 0.5. With GUUCCGCUGGCGUAAUGGUAACGCGUGUCCCUCCUAAGGAGAAGACUGCGGGUUCGAGUCCCGUUCGGAGCG [U7C C27G A65U A70G] the yeast fitness was ≤ 0.5. With GUUCCGUUGGCGUAAUGCUAACGUGUCUCCCUCCUAAGGUGAAGACUGCGGGUUCGAGUCCCGUACGGAACG [G18C C24U A40U] the yeast fitness was ≤ 0.5. In the case of GUUUCGUUGGCGUAAUGGUGACGCGUCUCCCUCCUAAGGAGAAGACUGCGGGUUCAAGUCCCGUGCGGAACG [C4U A20G G56A A65G], the yeast fitness is reported as ≤ 0.5. With GUUCCGUUGGUAUAAUGGUAACGCGUCUCCCUCCUAAGGAGAACAUUGCGGGUUCGAGUCCCGUACGGACCG [C11U G12A G44C C46U A70C] the yeast fitness was ≤ 0.5. With GUUCCGUUGGCGGAAUGGUAAAGCGAGUCCCUCCUAAGGAGAAGACUACGGGUUCGAGUCCCGUACGGAACG [U13G C22A U26A C27G G48A] the yeast fitness was ≤ 0.5. In the case of GUUCCGUUGGCGUAAUGGUAACGCGUCUGCUUCCUAAGGAGAAGACUGCGGGUUCGAGUCCCGUAUGGAACG [C29G C31U C66U], the yeast fitness is reported as ≤ 0.5. Variant GUUCCGUUGGCGUAAUGGUUACGCGACUCCCUCCUAAGGAGAAGACUGCGGGUUCGAGUCCUGUACGGAACG [A20U U26A C62U] has a yeast fitness of 0.542. For GUUCCGUCGGCGUAAUGGUAAUGCGUCUCCCUCCUAAGGAGAAGACUGCGGGUUCAAGUCCCGUACGCAACG [U8C C22U G56A G68C], the yeast fitness was ≤ 0.5. In the case of GUUCCGUUGGCGAAAUGGUAACGCGUCUCCCUCCUAAGGAGAAGACUGCGGGUUCGAGUCGCAUACGGAGCG [U13A C61G G63A A70G], the yeast fitness is reported as ≤ 0.5. With GUCCCGUAGGCGUACUGGUAACGCGUCUCCGUCCUAAGGAGAAGACUGUGGGUUCGUGUCCCGUACCGAACG [U3C U8A A15C C31G C49U A57U G67C] the yeast fitness was ≤ 0.5. For GUACCGUUGACGUAAUGGUAACGCGUCUCCCUCCUAAGGAGAAGACUGAGGGUUCGAGUCCCGUACGGAACG [U3A G10A C49A], the yeast fitness was ≤ 0.5. For GCUCCGUUGGUAUAGUGGUAACGCGUCUCCCUCCUAAGGAGAAGACUCCGGGUUCGAGUCCCGUCCGGAACG [U2C C11U G12A A15G G48C A65C], the yeast fitness was ≤ 0.5. For GUUCCGUUGGCGAAAUGGUAACGCAUCUCCCUCCUAAGGAGAAGACUCCGGCUUUGAGUCCCGUACGGAACG [U13A G25A G48C G52C C55U], the yeast fitness was ≤ 0.5. With GUUCAGUUGGCGUAAUGGUAACGCGUCGCCCUCCUAAGGAGAAGACUGCGGGUUCGAGCCCCGUACGGAACG [C5A U28G U59C] the yeast fitness was ≤ 0.5. With GUUCCGUUGGCGUAAUGGUAACGCGUCUCCCUUCUAAGGAGAAGACUGCGGGUUGGAGUCCCGUACGGAACG [C33U C55G] the yeast fitness was ≤ 0.5. In the case of GUUCGGUUGGCCUAAUGGAAACGCGUCUCCAUCCUAAGGAGAAGACUGCGGGUUCGAGUCCCGUACGGAACG [C5G G12C U19A C31A], the yeast fitness is reported as ≤ 0.5. GUUCCGUUGGCGUAAUGGUACCGCGUCUGCCUCCUAAGGAGAAGACUGCGGGUUCGAGUCCCGUACGCAACG [A21C C29G G68C] showed a yeast fitness of 0.557. Variant GUUCCGUUGGCAUAAUGGUCACGCGUCUCCCUCCUAAGGAGAAGACUGCGGGUUCGAGUCCCGUUCGGAACG [G12A A20C A65U] has a yeast fitness of 0.57. For GUUCCGUAGGCGUAAUGGUAACGCGUCUCACCCCUAAGGAGAAGACUGCGGGUUCGAGUCCCGUACGGAACG [U8A C30A U32C], the yeast fitness was ≤ 0.5. With GUUCCGUUGGCGUAAUGGUAAAGCGUCUCCCUCCUAAGGAGAAGACUGCCGGUUCGAGUCCCGUGCGGAACG [C22A G50C A65G] the yeast fitness was ≤ 0.5. With GUUCCGUUGGCGUAAUGGUAACGCGUCUUCCUCCUAGGGAGAAGACUGCGGGUUCGAGUCCCGUGCGGAACG [C29U A37G A65G] the yeast fitness was ≤ 0.5. GUUCCGUUGGCGUAUUGGUCACGCGUUUCCCUCCUAAGGAGAAGACUGCGGGUUCGAGUCCCGUACGGAACG [A15U A20C C27U] gave a yeast fitness of 0.748. For GUUACGUUGGCGAAAUGGUAACGCGUCUCACCCCUAAGGAGAAGACUGCGGGUUCGAGUCGCGUACGGAACG [C4A U13A C30A U32C C61G], the yeast fitness was ≤ 0.5. With GUUCCGUUGGCGUAAUGGUAAGGCGUCUCCCUCGUAAGGAGAAGACUGCGGGUUCGAGUCGCGUACGGAACG [C22G C34G C61G] the yeast fitness was ≤ 0.5.
